Reference: article PMC8074078
Results are given in words; binding and its absence hold for the method and conditions named. In cells and extracts the contact can be indirect. Here binding means that the protein was enriched with, or labelled near, the bait; the list need not be complete.

The chains behind the UniProt entries cited, without tags or fusion partners. Where a name states a change or a piece, a line headed by the entry shows the natural chain unless it says otherwise. A line that says so, or that is headed by a name, gives the form on record, which may keep a tag or linker.
His6-PACRG (Parkin co-regulated gene) (Q96M98, form named): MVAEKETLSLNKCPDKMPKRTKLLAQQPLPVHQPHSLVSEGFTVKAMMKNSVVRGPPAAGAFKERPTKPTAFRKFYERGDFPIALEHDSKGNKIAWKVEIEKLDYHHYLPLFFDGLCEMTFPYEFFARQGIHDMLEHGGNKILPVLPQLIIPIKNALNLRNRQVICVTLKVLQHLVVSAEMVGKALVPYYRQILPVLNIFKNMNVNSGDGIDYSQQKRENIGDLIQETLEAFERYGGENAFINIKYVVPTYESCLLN

Assays:
His6-GST-PACRG (human) = His6-GST-PACRG (human) (UniProt Q96M98); test: affinity purification with mass spectrometry; purified His6-tagged bait coupled to Ni2+-charged resin (2 h, 4 °C), incubated 2 h with supernatant of HEK293T cell lysate, washed three times with 5 mM imidazole; bound proteins identified by LC-MS/MS; controls: Ni2+-charged resin alone (for His6-PACRG) and His6-GST (for His6-GST-PACRG); only proteins found with both baits accepted; only the target purified
[1] = target: His6-PACRG (Parkin co-regulated gene) (human) (UniProt Q96M98); test: as above

binding (His6-GST-PACRG (human)): binds | binding [1]: binds
B1: TRIM11 (protein, UniProt Q96F44 1-468)
chain: MAAPDLSTNLQEEATCAICLDYFTDPVMTDCGHNFCRECIRRCWGQPEGPYACPECRELSPQRNLRPNRPLAKMAEMARRLHPPSPVPQGVCPAHREPLAAFCGDELRLLCAACERSGEHWAHRVRPLQDAAEDLKAKLEKSLEHLRKQMQDALLFQAQADETCVLWQKMVESQRQNVLGEFERLRRLLAEEEQQLLQRLEEEELEVLPRLREGAAHLGQQSAHLAELIAELEGRCQLPALGLLQDIKDALRRVQDVKLQPPEVVPMELRTVCRVPGLVETLRRFRGDVTLDPDTANPELILSEDRRSVQRGDLRQALPDSPERFDPGPCVLGQERFTSGRHYWEVEVGDRTSWALGVCRENVNRKEKGELSAGNGFWILVFLGSYYNSSERALAPLRDPPRRVGIFLDYEAGHLSFYSATDGSLLFIFPEIPFSGTLRPLFSPLSSSPTPMTICRPKGGSGDTLAPQ
